From paper doi:10.1101/2025.07.25.666897 come the findings set out here.

By UniProt entry, the sequences of proteins in these tests, tags left out.
UniProt P06730: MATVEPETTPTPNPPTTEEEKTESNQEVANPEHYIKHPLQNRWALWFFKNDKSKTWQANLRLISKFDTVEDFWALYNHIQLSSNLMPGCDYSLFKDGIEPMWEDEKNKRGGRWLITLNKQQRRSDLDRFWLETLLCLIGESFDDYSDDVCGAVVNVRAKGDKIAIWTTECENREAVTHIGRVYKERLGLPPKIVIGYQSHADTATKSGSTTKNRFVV
UniProt Q15717: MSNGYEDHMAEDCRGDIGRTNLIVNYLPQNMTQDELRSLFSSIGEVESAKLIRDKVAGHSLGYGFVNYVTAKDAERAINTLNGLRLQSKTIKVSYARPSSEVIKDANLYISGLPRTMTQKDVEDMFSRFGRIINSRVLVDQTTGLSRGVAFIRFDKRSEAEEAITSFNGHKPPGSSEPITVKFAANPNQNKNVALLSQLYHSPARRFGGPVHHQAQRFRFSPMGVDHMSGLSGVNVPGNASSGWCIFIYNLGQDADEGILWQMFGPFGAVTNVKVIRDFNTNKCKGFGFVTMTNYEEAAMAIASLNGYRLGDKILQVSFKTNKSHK

Results are given in words; binding and its absence hold for the method and conditions named. In cells and extracts the contact can be indirect. Some entries that bind do so weakly or less than the wild type. For some of these results: Tags and fused reporters may be left off the sequences shown.

Assay [1] deals with eukaryotic translation initiation factor eIF4E (endogenous) (human (endogenous in U2OS)) (UniProt P06730). The assay can be described thus: co-IP; endogenous eIF4E precipitated with anti-eIF4E (rabbit, MBL) on Dynabeads G from native (not crosslinked), untreated U2OS nuclear lysates, NT-2 buffer, 4°C overnight, one wash with 1 mg/ml heparin; IgG control; western blot. (In general: A western blot detects proteins with antibodies after separation by electrophoresis.)

The target of a further assay is T1, 2FLAG-NCBP2 (UniProt P52298).
T1 sequence: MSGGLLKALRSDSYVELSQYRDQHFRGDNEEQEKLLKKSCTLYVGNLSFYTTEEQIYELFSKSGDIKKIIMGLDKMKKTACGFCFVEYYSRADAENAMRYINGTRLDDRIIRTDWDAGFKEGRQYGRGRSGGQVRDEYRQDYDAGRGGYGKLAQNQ
The experiment in a line: co-IP; FLAG IPs from crosslinked nuclear lysates of U2OS cells stably overexpressing FLAG-eIF4E or FLAG-NCBP2, two clones each in biological duplicate; vector cells as control; western blot.

In a further assay the target is 2FLAG-eIF4E (UniProt P06730). Described as above.

HuR/ELAVL1 (from UniProt Q15717 1-326): the binding entry in assay [1] was “binds”.

B1: U2AF1 (protein, UniProt Q01081 1-240)
chain: MAEYLASIFGTEKDKVNCSFYFKIGACRHGDRCSRLHNKPTFSQTIALLNIYRNPQNSSQSADGLRCAVSDVEMQEHYDEFFEEVFTEMEEKYGEVEEMNVCDNLGDHLVGNVYVKFRREEDAEKAVIDLNNRWFNGQPIHAELSPVTDFREACCRQYEMGECTRGGFCNFMHLKPISRELRRELYGRRRKKHRSRSRSRERRSRSRDRGRGGGGGGGGGGGGRERDRRRSRDRERSGRF
B1: the binding result in assay [1] is “binds”.

B2: ARS2, also known as SRRT (protein, UniProt Q9BXP5 1-876)
chain: MGDSDDEYDRRRRDKFRRERSDYDRSRERDERRRGDDWNDREWDRGRERRSRGEYRDYDRNRRERFSPPRHELSPPQKRMRRDWDEHSSDPYHSGYEMPYAGGGGGPTYGPPQPWGHPDVHIMQHHVLPIQARLGSIAEIDLGVPPPVMKTFKEFLLSLDDSVDETEAVKRYNDYKLDFRRQQMQDFFLAHKDEEWFRSKYHPDEVGKRRQEARGALQNRLRVFLSLMETGWFDNLLLDIDKADAIVKMLDAAVIKMEGGTENDLRILEQEEEEEQAGKPGEPSKKEEGRAGAGLGDGERKTNDKDEKKEDGKQAENDSSNDDKTKKSEGDGDKEEKKEDSEKEAKKSSKKRNRKHSGDDSFDEGSVSESESESESGQAEEEKEEAEEALKEKEKPKEEEWEKPKDAAGLECKPRPLHKTCSLFMRNIAPNISRAEIISLCKRYPGFMRVALSEPQPERRFFRRGWVTFDRSVNIKEICWNLQNIRLRECELSPGVNRDLTRRVRNINGITQHKQIVRNDIKLAAKLIHTLDDRTQLWASEPGTPPLPTSLPSQNPILKNITDYLIEEVSAEEEELLGSSGGAPPEEPPKEGNPAEINVERDEKLIKVLDKLLLYLRIVHSLDYYNTCEYPNEDEMPNRCGIIHVRGPMPPNRISHGEVLEWQKTFEEKLTPLLSVRESLSEEEAQKMGRKDPEQEVEKFVTSNTQELGKDKWLCPLSGKKFKGPEFVRKHIFNKHAEKIEEVKKEVAFFNNFLTDAKRPALPEIKPAQPPGPAQILPPGLTPGLPYPHQTPQGLMPYGQPRPPILGYGAGAVRPAVPTGGPPYPHAPYGAGRGNYDAFRGQGGYPGKPRNRMVRGDPRAIVEYRDLDAPDDVDFF
Regarding B2, the binding entry with 2FLAG-NCBP2 is given as “binds”; with 2FLAG-eIF4E, “no binding”.
